This passage reports binding results from article PMC7192513.

To fix the notation:
T1: Kelch protein K13 (P. falciparum (endogenous in Cam3.II and CamWT parasites)) (UniProt Q8IDQ2)
T1 sequence: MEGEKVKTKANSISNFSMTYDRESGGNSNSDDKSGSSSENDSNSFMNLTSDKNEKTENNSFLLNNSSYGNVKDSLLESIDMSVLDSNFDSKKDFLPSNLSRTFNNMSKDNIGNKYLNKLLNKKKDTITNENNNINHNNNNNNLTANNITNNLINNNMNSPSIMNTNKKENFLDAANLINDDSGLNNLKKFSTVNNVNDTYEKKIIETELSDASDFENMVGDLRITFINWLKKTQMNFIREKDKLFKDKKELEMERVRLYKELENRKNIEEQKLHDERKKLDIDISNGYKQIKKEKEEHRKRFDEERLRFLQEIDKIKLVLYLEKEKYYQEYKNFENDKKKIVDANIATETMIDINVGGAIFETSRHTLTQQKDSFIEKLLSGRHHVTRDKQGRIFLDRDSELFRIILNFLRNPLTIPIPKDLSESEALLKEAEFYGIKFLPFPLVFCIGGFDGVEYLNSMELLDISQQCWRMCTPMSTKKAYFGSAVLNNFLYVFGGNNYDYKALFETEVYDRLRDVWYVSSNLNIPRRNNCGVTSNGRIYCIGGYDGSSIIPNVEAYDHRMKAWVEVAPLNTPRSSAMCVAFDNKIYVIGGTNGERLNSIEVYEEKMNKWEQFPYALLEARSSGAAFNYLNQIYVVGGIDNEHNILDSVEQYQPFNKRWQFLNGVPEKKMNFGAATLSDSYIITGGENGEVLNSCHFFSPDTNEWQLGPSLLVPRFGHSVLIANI

B1: Small GTP-binding protein Sar1 (protein, UniProt Q8I1S0 1-192)
chain: MFIINWFRDILAHLGLSQKSARILFLGLDNAGKTTLLHMLKDDRVAQHVPTLHPHSEELVVGKIRFKTFDLGGHETARRIWRDYFAAVDAVVFMIDTTDRSRFDEAREELRHLLETEELSNVPFVVLGNKIDKPDAASEDELRQHLNLFSNITVHNNMKGGSGVRPVELFMCSVIRRMGYAAAFKWISQFLT
B2: eIF2α (protein, UniProt Q8IBH7 1-329)
chain: MTEMRVKADLGDCRFYKKKFPEVDDLIMVKVNRIEDMGAYVSILEYNDMEGMILMSELSKRRFRSVNKLIRVGRHEVVLVLRVDSQKGYIDLSKRRVSPKDIIKCEEKFSKSKKVHQTVRHVAKEHGITVEELNEKAIWPLYERYGHALDALKEATMNPENVFKGLDISEEIKNSLLKDIKLRLTPQALKLRGRIDVWCFGYEGIDAVKEALKKGKEISNDKVSINIKLIAPPQYVIVTSCHDKDLGMAKIQEAMKVISDKIKEYKGGDFKQQGEILVIGGDEEKRLEELLDKHDGISSDDDDYNTSDEDDENSSEEDENTSEDEEEED
B3: 60S acidic ribosomal protein P2 (protein, UniProt O00806 1-112)
chain: MAMKYVAAYLMCVLGGNENPSTKEVKNVLGAVNADVEDEVLNNFIDSLKGKSCHELITDGLKKLQNIGGGVAAAPAGAAAVETAEAKKEDKKEEKKEEEEEEEDDLGFSLFG
B4: Fructose-bisphosphate aldolase (protein, UniProt Q7KQL9 1-369)
chain: MAHCTEYMNAPKKLPADVAEELATTAQKLVQAGKGILAADESTQTIKKRFDNIKLENTIENRASYRDLLFGTKGLGKFISGAILFEETLFQKNEAGVPMVNLLHNENIIPGIKVDKGLVNIPCTDEEKSTQGLDGLAERCKEYYKAGARFAKWRTVLVIDTAKGKPTDLSIHETAWGLARYASICQQNRLVPIVEPEILADGPHSIEVCAVVTQKVLSCVFKALQENGVLLEGALLKPNMVTAGYECTAKTTTQDVGFLTVRTLRRTVPPALPGVVFLSGGQSEEEASVNLNSINALGPHPWALTFSYGRALQASVLNTWQGKKENVAKAREVLLQRAEANSLATYGKYKGGAGGENAGASLYEKKYVY
B5: Rab11B (protein, UniProt Q5F2Q2 1-229)
chain: MSNEEYDHLYKIILVGDATVGKTHLLSRYIRGSLPSVAKATIGVEFATRTIPLAVGGTVKAQIWDTAGQERYRSITSAHYRRSAGAILVYDITKKKTFLSISKWLEEIRQNADKDIVIMLVGNKVDLTEEDETKRKVTYEQGANFARENNLFFAEASAVSKLNVKHIFENLLQEIYNNRLKNNNRSFSNRSVATCESAIQLTKARSVIKLNEVYDNQSEDNNMNKVKCC
B6: Proliferating cell nuclear antigen 1 (protein, UniProt P61074 1-274)
chain: MLEAKLNNASILKKLFECIKDLVNDANVDADESGLKLQALDGNHVSLVSLHLLDSGFSHYRCDRERVLGVNIASLNKVFKLCGANESVVISSKDDEDNLNFVFENNKEDKVTNFSLKLMSIELDSLNIPDCEEGFDAEVELSSKELTNIFRNLSEFSDTVFIEIDSNCIKFTTKGIVGDAEVALKPRDSTSEDDIGVTIKSKKKIKQSFAIKYLNLFSKSNILADVVVLGLSDSRPIEFKYEIKDTSPDSDTLKIGFVKFFLAPKMDDDMDNKD
B7: Peptidyl-prolyl cis-trans isomerase FKBP35 (protein, UniProt Q8I4V8 1-304)
chain: MTTEQEFEKVELTADGGVIKTILKKGDEGEENIPKKGNEVTVHYVGKLESTGKVFDSSFDRNVPFKFHLEQGEVIKGWDICVSSMRKNEKCLVRIESMYGYGDEGCGESIPGNSVLLFEIELLSFREAKKSIYDYTDEEKVQSAFDIKEEGNEFFKKNEINEAIVKYKEALDFFIHTEEWDDQILLDKKKNIEISCNLNLATCYNKNKDYPKAIDHASKVLKIDKNNVKALYKLGVANMYFGFLEEAKENLYKAASLNPNNLDIRNSYELCVNKLKEARKKDKLTFGGMFDKGPLYEEKKNSAN
B8: falcilysin (protein, UniProt Q76NL8 1-1193)
chain: MNLTKLMKVIGYINIITNCVQSFTNRADKKRYNVFAKSFINTINTNLYTFKAVMSKTPEWIHEKSPKHNSYDIIEKRYNEEFKMTYTVYQHKKAKTQVISLGTNDPLDVEQAFAFYVKTLTHSGKGIPHILEHSVLSGSKNYNYKNSIGLLEKGTLHTHLNAYTFNDRTVYMAGSMNNKDFFNIMGVYMDSVFQPNVLENKYIFETEGWTYEVEKLKEDEKGKAEIPQMKDYKVSFNGIVYNEMKGALSSPLEDLYHEEMKYMFPDNVHSNNSGGDPKEITNLTYEEFKEFYYKNYNPKKVKVFFFSKNNPTELLNFVDQYLGQLDYSKYRDDAVESVEYQTYKKGPFYIKKKYGDHSEEKENLVSVAWLLNPKVDKTNNHNNNHSNNQSSENNGYSNGSHSSDLSLENPTDYFVLLIINNLLIHTPESVLYKALTDCGLGNNVIDRGLNDSLVQYIFSIGLKGIKRNNEKIKNFDKVHYEVEDVIMNALKKVVKEGFNKSAVEASINNIEFILKEANLKTSKSIDFVFEMTSKLNYNRDPLLIFEFEKYLNIVKNKIKNEPMYLEKFVEKHFINNAHRSVILLEGDENYAQEQENLEKQELKKRIENFNEQEKEQVIKNFEELSKYKNAEESPEHLNKFPIISISDLNKKTLEVPVNVYFTNINENNNIMETYNKLKTNEHMLKDNMDVFLKKYVLKNDKHNTNNNNNNNNNMDYSFTETKYEGNVPILVYEMPTTGIVYLQFVFSLDHLTVDELAYLNLFKTLILENKTNKRSSEDFVILREKNIGSMSANVALYSKDDHLNVTDKYNAQALFNLEMHVLSHKCNDALNIALEAVKESDFSNKKKVIDILKRKINGMKTTFSEKGYAILMKYVKAHLNSKHYAHNIIYGYENYLKLQEQLELAENDFKTLENILVRIRNKIFNKKNLMVSVTSDYGALKHLFVNSNESLKNLVSYFEENDKYINDMQNKVNDPTVMGWNEEIKSKKLFDEEKVKKEFFVLPTFVNSVSMSGILFKPGEYLDPSFTVIVAALKNSYLWDTVRGLNGAYGVFADIEYDGSVVFLSARDPNLEKTLATFRESAKGLRKMADTMTENDLLRYIINTIGTIDKPRRGIELSKLSFLRLISNESEQDRVEFRKRIMNTKKEDFYKFADLLESKVNEFEKNIVIITTKEKANEYIANVDGEFKKVLIE
B9: Rab6 (protein, UniProt Q26000 1-207)
chain: MDEFQNSGLNKYKLVFLGEQAVGKTSIITRFMYDTFDNNYQSTIGIDFLSKTLYLDEGPVRLQLWDTAGQERFRSLIPSYIRDSAAAIVVYDITNRQSFENTTKWIQDILNERGKDVIIALVGNKTDLGDLRKVTYEEGMQKAQEYNTMFHETSAKAGHNIKVLFKKTASKLPNLDNTNNNEANVVDIQLTNNSNKNDKNMLSKCLC

These are yes or no findings as the source states them, for the method shown. Binding seen in cells or lysates may run through a third protein. Here binding means that the protein was enriched with, or labelled near, the bait; the list need not be complete.

In the test the target is T1, Kelch protein K13 (P. falciparum (endogenous in Cam3.II and CamWT parasites)). The test can be described thus: affinity purification with mass spectrometry; co-IP with a mix of the K13 mAbs E3 and D9 (2.5 ug each) coupled to Pierce Direct IP columns; 500 ug parasite lysate in Pierce IP Lysis Buffer; cultures enriched in 0-12 hpi rings of Cam3.II (K13 WT, C580Y, R539T) and CamWT (WT, C580Y); eluates by LC-MS/MS; 6 experiments, 13 test samples, 10 negative controls.
With B1, the binding result is reported as “binds”.

For B2, the binding result was “binds”.

In the case of B3, the binding entry is recorded as “binds”.

For B4, the binding entry is recorded as “binds”.

With B5, the binding result is recorded as “binds”.

For B6, the binding entry is recorded as “binds”.

As to B7, the binding entry is on record as “binds”.

In the case of B8, the binding result is “binds”.

For B9, the binding entry was “binds”.
